No constants are given. Whether binding was seen depends on the method and setting. Some binding calls cover weakened binding; strength is not graded here.

Amino acid sequences for entries named in this document (tags omitted). A change or cut given only in a name is not applied to a line headed by its entry. Residues count along the entry.
UniProt P02461, residues 154-1221: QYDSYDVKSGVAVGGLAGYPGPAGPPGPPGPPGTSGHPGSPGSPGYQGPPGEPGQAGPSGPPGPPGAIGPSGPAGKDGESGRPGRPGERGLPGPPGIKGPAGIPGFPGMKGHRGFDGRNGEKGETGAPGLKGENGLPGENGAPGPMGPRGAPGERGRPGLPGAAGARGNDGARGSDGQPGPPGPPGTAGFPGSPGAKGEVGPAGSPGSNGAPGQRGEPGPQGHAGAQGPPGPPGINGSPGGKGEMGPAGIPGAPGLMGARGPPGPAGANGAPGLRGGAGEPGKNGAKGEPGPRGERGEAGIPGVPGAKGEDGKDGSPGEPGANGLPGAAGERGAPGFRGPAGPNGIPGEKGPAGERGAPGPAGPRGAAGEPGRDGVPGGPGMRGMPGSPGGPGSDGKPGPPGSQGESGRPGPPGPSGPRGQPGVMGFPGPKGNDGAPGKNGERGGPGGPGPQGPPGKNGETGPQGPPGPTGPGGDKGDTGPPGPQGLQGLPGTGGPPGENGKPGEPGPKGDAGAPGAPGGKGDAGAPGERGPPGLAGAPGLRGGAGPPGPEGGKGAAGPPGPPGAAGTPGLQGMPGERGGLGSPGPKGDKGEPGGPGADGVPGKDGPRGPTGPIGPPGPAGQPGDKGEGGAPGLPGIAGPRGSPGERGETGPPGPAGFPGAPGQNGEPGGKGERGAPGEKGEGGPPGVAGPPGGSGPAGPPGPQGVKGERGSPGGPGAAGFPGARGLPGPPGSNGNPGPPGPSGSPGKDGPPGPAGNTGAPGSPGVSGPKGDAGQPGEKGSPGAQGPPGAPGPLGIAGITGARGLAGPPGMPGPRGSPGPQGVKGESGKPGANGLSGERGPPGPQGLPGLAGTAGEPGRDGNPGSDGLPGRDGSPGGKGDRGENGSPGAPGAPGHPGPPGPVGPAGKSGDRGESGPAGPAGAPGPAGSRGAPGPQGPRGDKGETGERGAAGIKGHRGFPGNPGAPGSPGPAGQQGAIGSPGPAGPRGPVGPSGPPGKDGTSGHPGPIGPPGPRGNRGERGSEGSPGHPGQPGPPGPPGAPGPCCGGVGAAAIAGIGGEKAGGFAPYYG
UniProt P26006: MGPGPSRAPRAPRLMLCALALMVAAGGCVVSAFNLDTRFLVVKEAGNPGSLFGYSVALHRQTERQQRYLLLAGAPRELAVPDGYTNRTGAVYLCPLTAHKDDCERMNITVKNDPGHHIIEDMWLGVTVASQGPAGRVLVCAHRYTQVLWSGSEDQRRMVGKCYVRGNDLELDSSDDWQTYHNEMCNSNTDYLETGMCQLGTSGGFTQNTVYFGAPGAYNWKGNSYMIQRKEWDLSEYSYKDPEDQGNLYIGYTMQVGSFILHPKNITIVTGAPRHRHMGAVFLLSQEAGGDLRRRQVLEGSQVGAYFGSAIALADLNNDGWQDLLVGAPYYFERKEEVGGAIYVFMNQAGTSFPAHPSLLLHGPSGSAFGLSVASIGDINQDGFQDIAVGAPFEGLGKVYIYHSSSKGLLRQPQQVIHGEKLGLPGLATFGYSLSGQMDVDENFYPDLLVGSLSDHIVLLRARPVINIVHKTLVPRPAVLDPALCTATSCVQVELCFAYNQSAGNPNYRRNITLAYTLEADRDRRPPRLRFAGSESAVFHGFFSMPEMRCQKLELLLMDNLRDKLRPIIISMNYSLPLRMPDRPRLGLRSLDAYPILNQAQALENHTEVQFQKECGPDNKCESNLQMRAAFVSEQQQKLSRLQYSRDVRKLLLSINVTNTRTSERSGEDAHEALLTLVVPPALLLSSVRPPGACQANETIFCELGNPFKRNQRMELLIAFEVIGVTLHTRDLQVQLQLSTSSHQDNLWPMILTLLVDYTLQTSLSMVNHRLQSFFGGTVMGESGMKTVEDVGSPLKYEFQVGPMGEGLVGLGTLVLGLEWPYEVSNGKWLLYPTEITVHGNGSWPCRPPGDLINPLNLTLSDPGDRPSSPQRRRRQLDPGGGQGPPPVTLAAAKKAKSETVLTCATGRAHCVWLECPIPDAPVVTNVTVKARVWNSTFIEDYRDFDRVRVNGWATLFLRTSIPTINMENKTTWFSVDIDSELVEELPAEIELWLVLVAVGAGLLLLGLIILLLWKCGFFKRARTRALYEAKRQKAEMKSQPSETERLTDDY
UniProt P56199: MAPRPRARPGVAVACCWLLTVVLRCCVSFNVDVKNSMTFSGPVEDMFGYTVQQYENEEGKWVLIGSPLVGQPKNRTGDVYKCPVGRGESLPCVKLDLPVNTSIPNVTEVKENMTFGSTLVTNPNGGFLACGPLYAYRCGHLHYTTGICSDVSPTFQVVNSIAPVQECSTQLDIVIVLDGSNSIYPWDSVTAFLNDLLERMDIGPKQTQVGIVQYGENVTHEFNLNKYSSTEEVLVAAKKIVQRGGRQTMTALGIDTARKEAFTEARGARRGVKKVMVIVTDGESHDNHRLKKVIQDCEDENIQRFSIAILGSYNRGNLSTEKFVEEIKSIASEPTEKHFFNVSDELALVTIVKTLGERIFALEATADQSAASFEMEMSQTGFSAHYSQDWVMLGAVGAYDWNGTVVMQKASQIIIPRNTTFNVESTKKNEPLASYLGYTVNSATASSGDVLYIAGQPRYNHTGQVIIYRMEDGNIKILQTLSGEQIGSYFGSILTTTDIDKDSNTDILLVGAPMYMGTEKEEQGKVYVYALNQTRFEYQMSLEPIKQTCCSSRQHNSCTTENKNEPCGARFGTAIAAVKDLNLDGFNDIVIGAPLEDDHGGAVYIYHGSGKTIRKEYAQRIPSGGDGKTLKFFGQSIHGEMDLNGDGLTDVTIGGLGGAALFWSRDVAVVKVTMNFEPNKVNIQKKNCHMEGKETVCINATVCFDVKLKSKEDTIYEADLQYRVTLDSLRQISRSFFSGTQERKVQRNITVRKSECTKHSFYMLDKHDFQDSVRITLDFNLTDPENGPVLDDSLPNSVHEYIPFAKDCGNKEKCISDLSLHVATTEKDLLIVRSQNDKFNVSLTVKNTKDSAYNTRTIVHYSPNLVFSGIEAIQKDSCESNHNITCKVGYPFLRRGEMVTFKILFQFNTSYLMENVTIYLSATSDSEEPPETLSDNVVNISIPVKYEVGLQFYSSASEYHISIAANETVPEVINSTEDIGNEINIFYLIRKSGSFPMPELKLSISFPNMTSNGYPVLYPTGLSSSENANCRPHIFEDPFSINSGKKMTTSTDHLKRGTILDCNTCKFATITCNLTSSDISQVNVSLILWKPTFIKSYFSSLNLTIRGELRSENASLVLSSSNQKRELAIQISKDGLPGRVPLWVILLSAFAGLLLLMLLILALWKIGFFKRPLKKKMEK
UniProt P17301: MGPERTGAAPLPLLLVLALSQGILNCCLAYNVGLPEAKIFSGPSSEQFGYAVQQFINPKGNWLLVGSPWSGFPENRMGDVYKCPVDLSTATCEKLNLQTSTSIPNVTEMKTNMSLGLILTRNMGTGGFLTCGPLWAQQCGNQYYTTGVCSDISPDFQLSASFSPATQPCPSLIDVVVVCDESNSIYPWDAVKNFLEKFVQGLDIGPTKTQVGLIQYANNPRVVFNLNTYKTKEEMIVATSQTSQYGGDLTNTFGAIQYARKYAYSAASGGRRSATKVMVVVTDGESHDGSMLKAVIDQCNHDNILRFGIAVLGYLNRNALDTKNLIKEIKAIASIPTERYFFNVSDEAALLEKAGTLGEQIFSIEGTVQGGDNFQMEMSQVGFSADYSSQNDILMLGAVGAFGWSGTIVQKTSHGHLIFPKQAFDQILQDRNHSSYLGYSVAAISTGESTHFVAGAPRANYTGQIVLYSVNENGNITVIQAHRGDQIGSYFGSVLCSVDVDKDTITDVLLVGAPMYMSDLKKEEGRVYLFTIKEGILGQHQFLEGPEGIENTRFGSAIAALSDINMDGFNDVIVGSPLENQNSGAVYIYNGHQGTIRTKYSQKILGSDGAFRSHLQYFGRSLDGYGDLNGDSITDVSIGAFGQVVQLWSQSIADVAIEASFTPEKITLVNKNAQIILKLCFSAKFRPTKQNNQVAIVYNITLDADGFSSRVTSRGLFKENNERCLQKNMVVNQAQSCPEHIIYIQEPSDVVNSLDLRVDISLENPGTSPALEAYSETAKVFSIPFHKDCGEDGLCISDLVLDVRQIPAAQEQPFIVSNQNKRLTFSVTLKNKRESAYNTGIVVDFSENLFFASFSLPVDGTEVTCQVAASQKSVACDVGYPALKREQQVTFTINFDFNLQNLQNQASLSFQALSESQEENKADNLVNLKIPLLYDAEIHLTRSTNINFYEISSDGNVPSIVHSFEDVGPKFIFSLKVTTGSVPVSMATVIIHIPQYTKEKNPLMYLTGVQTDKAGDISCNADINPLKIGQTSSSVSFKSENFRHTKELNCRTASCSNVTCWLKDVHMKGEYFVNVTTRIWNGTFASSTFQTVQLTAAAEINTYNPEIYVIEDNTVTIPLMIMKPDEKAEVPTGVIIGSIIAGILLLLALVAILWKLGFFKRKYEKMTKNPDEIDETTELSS

In test [1] the target is human type III collagen (human) (UniProt P02461). In words: ELISA; solid-phase binding assay: collagen III or laminin-511 coated on 96-well plates (10 nM, overnight, 4°C); integrins 10 nM added for 3 h at RT in TBS, 0.1% BSA, 0.02% Tween-20, 1 mM MnCl2; bound integrin detected with biotinylated anti-Velcro antibody and streptavidin-HRP, absorbance at 490 nm; both purified. For orientation: In an ELISA, binding on a coated surface is turned into a signal by an enzyme label.

For test [2] the target is unchanged. In words: ELISA; solid-phase binding assay as a1, but in TBS, 0.1% BSA, 0.02% Tween-20 with 10 mM EDTA instead of 1 mM MnCl2; both purified.

Turning to “recombinant human α3β1 integrin (soluble heterodimer of the extracellular domains) (from UniProt P26006 33-991; P05556 21-728) (complex)”, the binding entry in test [1] is “no binding (tested: 10 nM)”.

As to “recombinant human α1β1 integrin (soluble heterodimer of the extracellular domains) (from UniProt P56199 29-1141; P05556 21-728) (complex)”, the binding result is listed as “no binding (condition: with 10 mM EDTA)” in test [2] and “binds” in test [1].

Take “recombinant human α2β1 integrin (soluble heterodimer of the extracellular domains) (from UniProt P17301 30-1132; P05556 21-728) (complex)”: the values for the binding entry in test [2] and in test [1] were “no binding (condition: with 10 mM EDTA)” and “binds”, respectively.

For the origin of these results see publication PMC3706371.
